Source: patent US9605296B2, “Fluorogenic peptidase substrate” (ECOLE NORMALE SUPERIEURE DE LYON, priority 2011, dated 2017)
At least one read-out could not be matched to a standard name with certainty.

Target: T1, microsomal leucine aminopeptidase (EC 3.4.11.2; PLA) (Sus scrofa, UniProt P15145)
T1 construct: The microsomal leucine aminopeptidase (EC 3.4.11.2) of pig kidney was purchased from Sigma; purchased Sigma 069K7356; host or cells: pig kidney (tissue-derived enzyme)
T1 sequence (P15145 1-963): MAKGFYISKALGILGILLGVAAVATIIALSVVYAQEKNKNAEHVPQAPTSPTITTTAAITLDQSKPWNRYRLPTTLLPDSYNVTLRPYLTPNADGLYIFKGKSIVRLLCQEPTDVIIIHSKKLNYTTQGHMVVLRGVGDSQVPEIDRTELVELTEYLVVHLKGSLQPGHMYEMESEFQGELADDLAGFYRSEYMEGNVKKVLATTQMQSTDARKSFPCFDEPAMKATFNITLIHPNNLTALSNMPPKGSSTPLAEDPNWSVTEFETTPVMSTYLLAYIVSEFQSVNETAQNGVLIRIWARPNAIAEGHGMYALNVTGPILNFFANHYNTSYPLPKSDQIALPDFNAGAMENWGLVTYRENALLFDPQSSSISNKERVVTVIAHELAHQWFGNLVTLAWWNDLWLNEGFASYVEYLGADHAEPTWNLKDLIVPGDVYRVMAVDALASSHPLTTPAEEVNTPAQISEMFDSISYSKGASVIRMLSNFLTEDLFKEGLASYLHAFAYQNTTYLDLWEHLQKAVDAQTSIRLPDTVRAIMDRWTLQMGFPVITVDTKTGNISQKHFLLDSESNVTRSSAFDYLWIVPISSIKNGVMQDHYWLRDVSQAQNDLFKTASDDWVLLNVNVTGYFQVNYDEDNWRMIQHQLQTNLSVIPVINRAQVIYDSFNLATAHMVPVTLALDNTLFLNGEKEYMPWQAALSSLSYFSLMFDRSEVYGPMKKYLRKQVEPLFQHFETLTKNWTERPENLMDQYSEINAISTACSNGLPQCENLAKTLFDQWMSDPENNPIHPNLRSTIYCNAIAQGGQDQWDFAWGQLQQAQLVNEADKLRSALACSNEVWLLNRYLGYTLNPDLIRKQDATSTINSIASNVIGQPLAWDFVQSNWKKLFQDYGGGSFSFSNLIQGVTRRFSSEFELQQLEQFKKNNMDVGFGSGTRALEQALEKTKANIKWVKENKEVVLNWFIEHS
Experiment: Enzymatic test: fluorescence of probes incubated with microsomal leucine aminopeptidase (PLA) in multi-well plates
Format: biochemical, pig
Conditions: 25° C., pH 7.4-7.6
Procedure: Preamble: Within the scope of the invention, upon applying the enzymatic tests, once the minimum, concentration allowing triggering of crystal nucleation is reached, a solid fluorophore may first be deposited on the walls of the receptacle (a well in a multi-well plate), before beginning to deposit on the bottom of the receptacle. The delay associated with the triggering of nucleation (≧10 mins) is well seen on the kinetic curves in the figures shown. The enzymatic tests carried out are illustrated with the appended figures.
The probes I.1 and I.2 were evaluated by incubation with the target enzyme, microsomal leucine aminopeptidase (EC 3.4.11.2; “PLA”; commercial) in an in vitro medium in multi-well micro-plates designed for fluorescence readers.
The main tests were conducted at 25° C., in solutions buffered to pH 7.4 (physiological pH). […] A temperature of 25° C. was therefore preferred.
All the final solutions for the enzymatic tests were buffered to a pH varying from 7.4 to 7.6 (depending on the room temperature) with a 25 mM (total concentration) of Tris/Tris.HCl buffer, containing 11 mM of NaCl. The microsomal leucine aminopeptidase (EC 3.4.11.2) of pig kidney was purchased from Sigma (catalogue no. 069K7356) in the form of a suspension in ammonium sulfate (3.5 M) containing MgCl2 (10 mM), with 3.5 mg·mL^−1 of protein contents and 10-40 U/mg of protein, as determined for the standard substrate, leucyl p-nitroanilide, and was stored in a fridge at 4° C. for a maximum of 40 days before its use. […] Analyses Carried Out:
The analyses were carried out with reading of the fluorescence values, measured in RFU, versus time. The analyses were conducted in black polypropylene plates with 96 (Corning, Corning Inc.) or with 384 (Nunclon, Nunc Inc.) wells, and recorded on a microplate fluorimeter (Mithras LB940 from Berthold Technologies). This fluorimeter was used in a so-called repeated mode, where the fluorescence was measured with a reading, here selected to be 3 seconds per well, the excitation beam with a diameter of 4 mm being centered in the well. […] It should be noted that this mode of use is close to the operation of optical high throughput screening by fluorescence, which is one of the applications envisioned for these types of probes. […] In the scanning mode, the wells were divided into a square read-out grid, typically covering the well with a resolution of 8×8 to 15×15 pixels, each of the pixels being read between 0.1 and 0.3 s. This scanning mode partly removes the errors and the read-out noise of the total fluorescence of the well subject to the repeated mode, subsequently to the tendency of the fluorophore once it is released of depositing a first phase on the walls. The scanning mode as implemented here is also slower and less suitable for qualitatively following reaction kinetics. It should be noted that this mode of use is close to the operation of cell counting, which is a second application envisioned for these types of probes.
The excitation wavelength for the probes I.1 and I.2 (based on HPQ) was set to 355 nm, and the localized emission wavelength was set to 510 nm, since the fluorimeter used has filters of the bandpass type for selecting these wavelengths with a bandwidth of 14 nm for the excitation beam and of 10 nm for the emission one.
The enzyme was added last to the prepared wells. After adding the enzyme, the contents of the well were sucked up and released twice with a pipette, in order to homogenize as much as possible the mixture. […] The addition of the enzyme well by well was accomplished by observing the reading delay between the wells, so that the reaction times of each well were the same for each readout of the plate in order to allow comparison of the acquired data for different wells (in these experiments, there was a delay between 3 seconds and 20 seconds, between the readout of the neighboring wells, to be multiplied by up to 77 wells read by acquisition at a time t). […]

[1] = probe 10 μM, PLA 3.5 μg/mL, plateau not reached
[2] = probe 18 μM, PLA 3.5 μg/mL, plateau not reached

SMILES | Values t1/2 (time to half of the maximum observed signal during the 11 hours of acquisition) [1] [h] | Values t1/2 (time to half of the maximum observed signal during the 11 hours of acquisition) [2] [h] | Values t1/2 (time to half of the maximum observed signal during the 11 hours of acquisition) (probe 32 μM, PLA 3.5 μg/mL) [h] | Values t1/2 (time to half of the maximum observed signal during the 11 hours of acquisition) (probe 59 μM, PLA 3.5 μg/mL) [h] | Values t1/2 (time to half of the maximum observed signal during the 11 hours of acquisition) (probe 100 μM, PLA 3.5 μg/mL) [h] | Values t1/2 (time to half of the maximum observed signal during the 11 hours of acquisition) (probe 378 μM, solution stored 3 wks in aqueous solution, freshly added PLA 3.5 μg/mL) [h]
CC(C)C[C@H](N)C(=O)NCC1CCCCN1C(=O)Oc1ccccc1-c1nc2ccccc2c(=O)[nH]1 (some centres unmarked) [I.1] | 8.67 | 8.32 | 3.95 | 1.55 | 0.917 | 1.18
CC(C)C[C@H](N)C(=O)NCC(C)(C)N(C)C(=O)Oc1ccccc1-c1nc2ccccc2c(=O)[nH]1 [I.2] | 8.88 | 7.67 | 5.73 | 2.7 | 2.08 | 
